Laboratory results: PubChem BioAssay AID1159584 (Peter MacCallum Cancer Centre, 2016)
The deposit covers about 18,000 reagents; below is a random part of them. The numbers tell different reagents against one gene apart. Further read-outs or replicates are left out here. The record does not give: the amount of reagent, the time to read-out.

Test: 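Genes whose loss is lethal only together with E-cadherin loss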 (primary screen)
Cells: human MCF10A breast epithelial cells, parental and CDH1-null
Knock-down reagent: siRNA against human genes
Read-out: 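Cell viability by CellTiter-Glo ATP luminescence, each line scaled to the mean of mock wells across plates, then CDH1-null over parental ratio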
Scale: CDH1-null / parental viability ratio: higher = CDH1-null cells survive relatively better than parental; CDH1-null viability vs mock: higher = more viable CDH1-null cells
Units: CDH1-null viability vs mock in fraction of mock

SH3TC2 → CDH1-null / parental viability ratio: 0.62; CDH1-null viability vs mock: 0.31
KCNK13 → CDH1-null / parental viability ratio: 1.33; CDH1-null viability vs mock: 0.88
NPPC → CDH1-null / parental viability ratio: 0.92; CDH1-null viability vs mock: 0.55
PALM2AKAP2 #1 → CDH1-null / parental viability ratio: 1.28; CDH1-null viability vs mock: 0.92
PALM2AKAP2 #2 → CDH1-null / parental viability ratio: 0.96; CDH1-null viability vs mock: 1.02
PALM2AKAP2 #3 → CDH1-null / parental viability ratio: 1; CDH1-null viability vs mock: 0.78
GNPTAB → CDH1-null / parental viability ratio: 1.06; CDH1-null viability vs mock: 1.02
KCTD15 → CDH1-null / parental viability ratio: 1.24; CDH1-null viability vs mock: 0.99
HELLS → CDH1-null / parental viability ratio: 1.18; CDH1-null viability vs mock: 0.97
CILP → CDH1-null / parental viability ratio: 1.29; CDH1-null viability vs mock: 0.88
RBMY1J → CDH1-null / parental viability ratio: 0.79; CDH1-null viability vs mock: 0.68
PPP1R35 → CDH1-null / parental viability ratio: 0.96; CDH1-null viability vs mock: 0.82
COX19 → CDH1-null / parental viability ratio: 0.68; CDH1-null viability vs mock: 0.68
C6orf15 → CDH1-null / parental viability ratio: 0.84; CDH1-null viability vs mock: 0.38
IREB2 → CDH1-null / parental viability ratio: 1.01; CDH1-null viability vs mock: 0.92
C2CD2 → CDH1-null / parental viability ratio: 1; CDH1-null viability vs mock: 0.7
CASC3 → CDH1-null / parental viability ratio: 1.29; CDH1-null viability vs mock: 0.88
NHLH2 → CDH1-null / parental viability ratio: 1.03; CDH1-null viability vs mock: 0.8
GRIA4 → CDH1-null / parental viability ratio: 1.45; CDH1-null viability vs mock: 1.32
RNF208 → CDH1-null / parental viability ratio: 0.75; CDH1-null viability vs mock: 0.6
TBXAS1 → CDH1-null / parental viability ratio: 0.93; CDH1-null viability vs mock: 0.64
BMPR1A → CDH1-null / parental viability ratio: 0.95; CDH1-null viability vs mock: 0.84
RALB → CDH1-null / parental viability ratio: 0.65; CDH1-null viability vs mock: 0.3
MIER3 → CDH1-null / parental viability ratio: 1.21; CDH1-null viability vs mock: 0.92
WEE1 → CDH1-null / parental viability ratio: 0.86; CDH1-null viability vs mock: 0.69
TRPM3 → CDH1-null / parental viability ratio: 1.64; CDH1-null viability vs mock: 0.36
DPP3 → CDH1-null / parental viability ratio: 1.14; CDH1-null viability vs mock: 0.96
VEGFB → CDH1-null / parental viability ratio: 0.88; CDH1-null viability vs mock: 0.45
HID1 → CDH1-null / parental viability ratio: 1.1; CDH1-null viability vs mock: 1
SLFN13 → CDH1-null / parental viability ratio: 1.08; CDH1-null viability vs mock: 0.83
OR10H2 → CDH1-null / parental viability ratio: 1.13; CDH1-null viability vs mock: 0.98
CDK6 → CDH1-null / parental viability ratio: 0.83; CDH1-null viability vs mock: 0.67
WFDC1 → CDH1-null / parental viability ratio: 1.06; CDH1-null viability vs mock: 0.54
IL15 → CDH1-null / parental viability ratio: 1.16; CDH1-null viability vs mock: 1.17
DARS1 → CDH1-null / parental viability ratio: 0.55; CDH1-null viability vs mock: 0.4
